Measured values reported in patent US20120329784A1, “COMPOUNDS AND METHODS” (priority 2010, published 2012).
Structures can show the parent of a compound that is named as a salt. Some entries share one result that the patent states for a list of compounds.

The compounds below were run against T1, Full length human TNNI3K (hTNNI3K) (Homo sapiens, UniProt Q59H18) (assay: Fluorescent polarization assay of compound inhibition on hTNNI3K ATP binding (Biological Assay Method I)). Conditions: mean of a minimum of 2 experiments; displacement of fluorescent ligand from hTNNI3K ATP binding pocket; 60 min at rt.
T1 construct: His-MBP-TEV-Full length human TNNI3K (hTNNI3K); His (N); MBP (N); TEV cleavage site (N); made in house; host or cells: baculovirus expression system (printed 'Baculokinase system')
T1 sequence (Q59H18 1-835): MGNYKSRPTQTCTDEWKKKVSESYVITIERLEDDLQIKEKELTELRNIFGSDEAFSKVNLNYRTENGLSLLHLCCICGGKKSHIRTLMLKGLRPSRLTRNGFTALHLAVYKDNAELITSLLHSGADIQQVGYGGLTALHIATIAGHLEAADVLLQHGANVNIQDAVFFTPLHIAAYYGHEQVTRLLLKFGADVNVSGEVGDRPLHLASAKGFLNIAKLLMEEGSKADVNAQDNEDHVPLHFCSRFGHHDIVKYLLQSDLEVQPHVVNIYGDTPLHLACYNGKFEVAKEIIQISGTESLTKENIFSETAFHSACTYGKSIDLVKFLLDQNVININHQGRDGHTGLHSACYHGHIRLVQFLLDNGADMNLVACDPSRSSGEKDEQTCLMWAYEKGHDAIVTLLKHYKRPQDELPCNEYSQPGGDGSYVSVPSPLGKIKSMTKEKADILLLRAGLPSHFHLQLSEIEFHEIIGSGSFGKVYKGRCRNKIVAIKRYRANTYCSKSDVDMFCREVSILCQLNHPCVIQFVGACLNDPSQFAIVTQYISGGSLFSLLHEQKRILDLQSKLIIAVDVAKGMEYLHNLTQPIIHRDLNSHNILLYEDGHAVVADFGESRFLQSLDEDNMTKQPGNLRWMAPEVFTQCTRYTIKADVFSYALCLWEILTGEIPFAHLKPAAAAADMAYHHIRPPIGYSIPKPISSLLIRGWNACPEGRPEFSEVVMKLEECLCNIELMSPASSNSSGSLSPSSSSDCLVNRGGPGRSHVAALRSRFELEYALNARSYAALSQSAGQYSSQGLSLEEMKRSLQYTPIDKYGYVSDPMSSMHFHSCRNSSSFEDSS

pXC50, ≥ 6.0:
CNS(=O)(=O)c1cccc(Nc2cc(Nc3ccc(-c4cnco4)cc3)ncn2)c1 [Example 260, N-methyl-3-[(6-{[4-(1,3-oxazol-5-yl)phenyl]amino}-4-pyrimidinyl)amino]benzenesulfonamide trifluoroacetate]
CNS(=O)(=O)c1cccc(Nc2cc(Nc3ccc(C(=O)N(C)CCN(C)C)cc3)ncn2)c1 [Example 368, N-[2-(dimethylamino)ethyl]-N-methyl-4-{[6-({3-[(methylamino)sulfonyl]phenyl}amino)-4-pyrimidinyl]amino}benzamide]
CNS(=O)(=O)c1ccc(SCC(C)C)c(Nc2cc(Nc3ccc(C(F)(F)F)cc3)ncn2)c1 [Example 116, 4-(isobutylthio)-N-methyl-3-(6-(4-(trifluoromethyl)phenylamino)pyrimidin-4-ylamino)benzenesulfonamide trifluoroacetate]
CNS(=O)(=O)c1ccc(SC)c(Nc2cc(Nc3ccc(C(F)(F)F)cc3)ncn2)c1 [Example 263, N-methyl-4-(methylthio)-3-[(6-{[4-(trifluoromethyl)phenyl]amino}-4-pyrimidinyl)amino]benzenesulfonamide trifluoroacetate]
CNS(=O)(=O)c1cc(Nc2cc(Nc3ccc(Cl)cc3)ncn2)c(N(C)C)cc1F [Example 24, 5-[6-(4-chloro-phenylamino)-pyrimidin-4-ylamino]-4-dimethylamino-2-fluoro-N-methyl-benzenesulfonamide]
CNS(=O)(=O)c1ccc(OCC(F)(F)F)c(Nc2cc(Nc3ccc(OC)c(Cl)c3)ncn2)c1.Cl [Example 32, 3-[(6-{[3-chloro-4-(methyloxy)phenyl]amino}-4-pyrimidinyl)amino]-N-methyl-4-[(2,2,2-trifluoroethyl)oxy]benzenesulfonamide hydrochloride]
CNS(=O)(=O)c1ccc(S(C)(=O)=O)c(Nc2cc(Nc3ccc4c(=O)cc(C)oc4c3)ncn2)c1 [Example 202, 4-methanesulfonyl-N-methyl-3-[6-(2-methyl-4-oxo-4H-chromen-7-ylamino)-pyrimidin-4-ylamino]-benzenesulfonamide]
CNS(=O)(=O)c1cccc(Nc2cc(Nc3cc4ccccc4cn3)ncn2)c1 [Example 278, 3-{[6-(3-isoquinolinylamino)-4-pyrimidinyl]amino}-N-methylbenzenesulfonamide]
CNS(=O)(=O)c1ccc(OCC(F)(F)F)c(Nc2cc(Nc3ccc(OC(F)F)cc3)ncn2)c1 [Example 118, 3-{[6-({4-[(difluoromethyl)oxy]phenyl}amino)-4-pyrimidinyl]amino}-N-methyl-4-[(2,2,2-trifluoroethyl)oxy]benzenesulfonamide trifluoroacetate]
CNS(=O)(=O)c1cccc(Nc2cc(Nc3ccc(C#N)cc3)ncn2)c1 [Example 179, 3-[6-(4-cyano-phenylamino)-pyrimidin-4-ylamino]-N-methyl-benzenesulfonamide trifluoroacetate]
CNS(=O)(=O)c1cccc(Nc2cc(Nc3cccc(N(C)C)c3)ncn2)c1 [Example 87, 3-[(6-{[3-(dimethylamino)phenyl]amino}-4-pyrimidinyl)amino]-N-methylbenzenesulfonamide trifluoroacetate]
CNS(=O)(=O)c1ccc(SC)c(Nc2cc(Nc3ccc4cc[nH]c4c3)ncn2)c1 [Example 160, 3-[6-(1H-indol-6-ylamino)-pyrimidin-4-ylamino]-N-methyl-4-methylsulfanyl-benzenesulfonamide trifluoroacetate]
CNS(=O)(=O)c1cccc(Nc2cc(Nc3ccc4[nH]ncc4c3)ncn2)c1 [Example 183, 3-[6-(1H-indazol-5-ylamino)-pyrimidin-4-ylamino]-N-methyl-benzenesulfonamide trifluoroacetate]
CNS(=O)(=O)c1cccc(Nc2cc(Nc3ncco3)ncn2)c1 [Example 280, N-methyl-3-{[6-(1,3-oxazol-2-ylamino)-4-pyrimidinyl]amino}benzenesulfonamide trifluoroacetate]
CNS(=O)(=O)c1cccc(Nc2cc(Nc3ccc(C(=O)NCC(=O)O)cc3)ncn2)c1 [Example 370, N-[(4-{[6-({3-[(methylamino)sulfonyl]phenyl}amino)-4-pyrimidinyl]amino}phenyl)carbonyl]glycine]
CNS(=O)(=O)c1ccc(OCC(F)(F)F)c(Nc2cc(Nc3ccc(C#N)cc3)ncn2)c1 [Example 121, 3-({6-[(4-cyanophenyl)amino]-4-pyrimidinyl}amino)-N-methyl-4-[(2,2,2-trifluoroethyl)oxy]benzenesulfonamide trifluoroacetate]
CNS(=O)(=O)c1ccc(S(=O)(=O)CC(C)C)c(Nc2cc(Nc3ccc(Cl)cc3)ncn2)c1 [Example 375, 3-(6-(4-chlorophenylamino)pyrimidin-4-ylamino)-4-(isobutylsulfonyl)-N-methylbenzenesulfonamide trifluoroacetate]
CNS(=O)(=O)c1cccc(Nc2cc(Nc3ccc4c(C)n[nH]c4c3)ncn2)c1 [Example 94, N-methyl-3-({6-[(3-methyl-1H-indazol-6-yl)amino]-4-pyrimidinyl}amino)benzenesulfonamide]
CNS(=O)(=O)c1cccc(Nc2cc(Nc3ccc(N4CCCCC4)cc3)ncn2)c1 [Example 178, N-methyl-3-[6-(4-piperidin-1-yl-phenylamino)-pyrimidin-4-ylamino]-benzenesulfonamide trifluoroacetate]
CNS(=O)(=O)c1ccc(S(=O)(=O)C(C)(C)C)c(Nc2cc(Nc3ccc(C(F)(F)F)cn3)ncn2)c1 [Example 310, 4-(tert-butylsulfonyl)-N-methyl-3-(6-(5-(trifluoromethyl)pyridin-2-ylamino)pyrimidin-4-ylamino)benzenesulfonamide trifluoroacetate]
CNS(=O)(=O)c1cccc(Nc2cc(Nc3ccc(F)c(C)c3)ncn2)c1.Cl [Example 91, 3-({6-[(4-fluoro-3-methylphenyl)amino]-4-pyrimidinyl}amino)-N-methylbenzenesulfonamide hydrochloride]
CNS(=O)(=O)c1ccc(S(C)(=O)=O)c(Nc2cc(Nc3ccc(C#N)cc3)ncn2)c1 [Example 131, 3-({6-[(4-cyanophenyl)amino]-4-pyrimidinyl}amino)-N-methyl-4-(methylsulfonyl)benzenesulfonamide trifluoroacetate]
CNS(=O)(=O)c1ccc(OCC(F)(F)F)c(Nc2cc(Nc3ccncc3)ncn2)c1 [Example 292, N-methyl-3-{[6-(4-pyridinylamino)-4-pyrimidinyl]amino}-4-[(2,2,2-trifluoroethyl)oxy]benzenesulfonamide trifluoroacetate]
CNS(=O)(=O)c1ccc(OC(F)(F)F)c(Nc2cc(Nc3ccc(F)c(F)c3)ncn2)c1.O=C(O)C(F)(F)F [Example 267, 3-({6-[(3,4-difluorophenyl)amino]-4-pyrimidinyl}amino)-N-methyl-4-[(trifluoromethyl)oxy]benzenesulfonamide trifluoroacetate]
CNS(=O)(=O)c1ccc(OCC(F)(F)F)c(Nc2cc(Nc3ccc(C(F)(F)F)nc3)ncn2)c1 [Example 297, N-methyl-4-[(2,2,2-trifluoroethyl)oxy]-3-[(6-{[6-(trifluoromethyl)-3-pyridinyl]amino}-4-pyrimidinyl)amino]benzenesulfonamide]
CNS(=O)(=O)c1ccc(S(C)(=O)=O)c(Nc2cc(Nc3ccc(CC#N)cc3)ncn2)c1 [Example 134, 3-(6-(4-(cyanomethyl)phenylamino)pyrimidin-4-ylamino)-N-methyl-4-(methylsulfonyl)benzenesulfonamide]
C#Cc1cccc(Nc2cc(Nc3cccc(S(=O)(=O)NC)c3)ncn2)c1 [Example 174, 3-[6-(3-ethynyl-phenylamino)-pyrimidin-4-ylamino]-N-methyl-benzenesulfonamide trifluoroacetate]
C#Cc1cccc(Nc2cc(Nc3cc(S(=O)(=O)NC)ccc3S(C)(=O)=O)ncn2)c1 [Example 195, 3-(6-(3-ethynylphenylamino)pyrimidin-4-ylamino)-N-methyl-4-(methylsulfonyl)benzenesulfonamide]
CNS(=O)(=O)c1cccc(Nc2cc(Nc3cccc(-c4ccc(NS(C)(=O)=O)cc4)c3)ncn2)c1 [Example 342, N-methyl-3-{[6-({4′-[(methylsulfonyl)amino]-3-biphenylyl}amino)-4-pyrimidinyl]amino}benzenesulfonamide]
